Data reported in paper PMC10598138.
No constants are given. Whether binding was seen depends on the method and setting. In cells and extracts the contact can be indirect. Some results given as binding are weak or reduced against the parent protein; the word gives no strength.

By UniProt entry, the sequences of proteins in these tests, tags left out.
UniProt P04350: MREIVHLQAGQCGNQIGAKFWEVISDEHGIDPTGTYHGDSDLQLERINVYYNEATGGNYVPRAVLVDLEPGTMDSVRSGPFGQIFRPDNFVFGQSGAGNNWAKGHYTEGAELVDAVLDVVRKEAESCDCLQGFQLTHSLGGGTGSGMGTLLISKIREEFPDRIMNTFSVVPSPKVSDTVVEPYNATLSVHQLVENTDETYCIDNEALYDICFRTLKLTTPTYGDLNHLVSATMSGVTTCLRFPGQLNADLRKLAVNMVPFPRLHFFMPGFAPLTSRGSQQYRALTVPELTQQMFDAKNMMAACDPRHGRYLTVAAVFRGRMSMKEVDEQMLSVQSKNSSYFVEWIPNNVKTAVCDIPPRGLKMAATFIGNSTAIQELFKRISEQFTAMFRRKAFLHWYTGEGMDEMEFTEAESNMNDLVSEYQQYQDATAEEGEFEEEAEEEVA
UniProt Q3ZCM7: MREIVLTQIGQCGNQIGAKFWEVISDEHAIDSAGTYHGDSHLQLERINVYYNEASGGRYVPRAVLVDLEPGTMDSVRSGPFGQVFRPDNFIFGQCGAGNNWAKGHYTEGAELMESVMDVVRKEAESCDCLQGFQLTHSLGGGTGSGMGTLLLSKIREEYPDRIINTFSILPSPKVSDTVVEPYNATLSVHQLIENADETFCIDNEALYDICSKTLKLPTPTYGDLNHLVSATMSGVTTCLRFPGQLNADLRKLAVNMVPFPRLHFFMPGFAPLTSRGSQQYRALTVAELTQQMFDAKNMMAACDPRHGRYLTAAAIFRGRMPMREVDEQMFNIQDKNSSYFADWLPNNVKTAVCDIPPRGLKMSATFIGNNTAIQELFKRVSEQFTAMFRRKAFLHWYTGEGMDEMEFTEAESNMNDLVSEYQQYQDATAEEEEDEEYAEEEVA
UniProt P52732: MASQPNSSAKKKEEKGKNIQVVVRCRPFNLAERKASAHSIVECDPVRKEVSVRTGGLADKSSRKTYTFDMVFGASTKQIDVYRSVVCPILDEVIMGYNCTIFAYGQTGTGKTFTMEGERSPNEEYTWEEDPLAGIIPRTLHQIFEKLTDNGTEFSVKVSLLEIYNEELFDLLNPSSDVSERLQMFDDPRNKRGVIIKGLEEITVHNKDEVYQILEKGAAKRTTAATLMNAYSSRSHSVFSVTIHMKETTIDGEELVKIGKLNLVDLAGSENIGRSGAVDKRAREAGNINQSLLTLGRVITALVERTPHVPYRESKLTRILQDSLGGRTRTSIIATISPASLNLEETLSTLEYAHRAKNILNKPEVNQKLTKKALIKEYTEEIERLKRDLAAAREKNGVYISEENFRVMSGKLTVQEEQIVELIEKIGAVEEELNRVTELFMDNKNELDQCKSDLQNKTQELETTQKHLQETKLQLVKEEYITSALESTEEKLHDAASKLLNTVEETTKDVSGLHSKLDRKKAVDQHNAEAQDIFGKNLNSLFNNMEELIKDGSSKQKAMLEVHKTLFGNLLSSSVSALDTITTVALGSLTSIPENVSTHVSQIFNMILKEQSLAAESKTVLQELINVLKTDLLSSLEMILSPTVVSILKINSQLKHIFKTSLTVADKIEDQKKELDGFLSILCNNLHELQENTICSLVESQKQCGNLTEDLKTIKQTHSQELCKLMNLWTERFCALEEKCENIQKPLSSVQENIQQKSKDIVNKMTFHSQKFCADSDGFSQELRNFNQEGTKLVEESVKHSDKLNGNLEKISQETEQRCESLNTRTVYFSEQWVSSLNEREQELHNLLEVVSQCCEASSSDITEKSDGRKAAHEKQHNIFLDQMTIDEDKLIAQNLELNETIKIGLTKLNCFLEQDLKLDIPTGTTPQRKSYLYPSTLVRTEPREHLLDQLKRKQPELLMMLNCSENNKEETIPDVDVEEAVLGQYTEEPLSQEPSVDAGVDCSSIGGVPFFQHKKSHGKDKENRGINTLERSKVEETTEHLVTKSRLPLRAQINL

What was measured:
[1] = target: 5'FLAG-TUBB4A (human beta-tubulin isotype TUBB4A) (human) (UniProt P04350); experiment: co-IP; HEK293T cells co-transfected with 5'HA-KIF11 and 5'FLAG-TUBB8 or 5'FLAG-TUBB4A; NP-40 lysis buffer (0.5% NP-40, 50 mM Tris, 150 mM NaCl, pH 7.5); lysate incubated with FLAG-IgG agarose beads 3 h at 4 °C; HA-KIF11 detected by western blot
[2] = target: 5'FLAG-TUBB8 (human beta-tubulin isotype TUBB8) (human) (UniProt Q3ZCM7); experiment: as above

5'HA-KIF11 (human kinesin family member 11) (from UniProt P52732 1-1056)
binding [1]: binds
binding [2]: binds
